PubChem BioAssay AID652259, Drosophila RNAi Screening Center | 2013
In all, the deposit lists about 22,000 reagents; shown is an unselected part of those that have a named target and a result. Over the whole deposit, 233 (1.1%) got an active call. 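Light values are raw, unnormalised plate reads; the ratio scores behind the reporter calls were not deposited.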 Not given: the amount of reagent, the time to read-out, the dose of the treatment.

Aim: 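Identify new Wingless signalling regulators in fly cells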 (primary screen)
Cell system: Drosophila clone 8 imaginal disc epithelial cells
Knock-down reagent: long dsRNA against Drosophila genes
Conditions: pathway stimulated by co-transfected Wingless expression plasmid
Measurement: 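Dual luciferase reads per well after Wingless plasmid stimulation: reporter firefly light and Renilla control light; activity is firefly divided by Renilla, a ratio not deposited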
Scale: firefly reporter light: higher = more Wg reporter light, before normalisation; Renilla control light: higher = more transfected or surviving cells
Call rule: 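Strong candidates differ from their plate mean by at least two out of four per-plate statistical tests; weak candidates meet just one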
Calls: active = candidate regulator (raises or lowers reporter); inactive = not a candidate

Silencing of Pgant2 (GeneID 33556) [DRSC00587] came out at: firefly reporter light, replicate 1 = 3848; firefly reporter light, replicate 2 = 9997; Renilla control light, replicate 1 = 1648; Renilla control light, replicate 2 = 4219; inactive.
Against Arp2 (GeneID 32623) [DRSC19332] the deposit lists firefly reporter light, replicate 1 = 17208; Renilla control light, replicate 1 = 7354; inactive.
rin (GeneID 47998) [DRSC17045] gave reporter change call, replicate 1 = Wg reporter activity raised; firefly reporter light, replicate 1 = 24332; Renilla control light, replicate 1 = 1433; active.
CG4927 (GeneID 36852) [DRSC06903] showed firefly reporter light, replicate 1 = 5315; Renilla control light, replicate 1 = 2409; inactive.
Depletion of jet (GeneID 33705) [DRSC03116] came out at: firefly reporter light, replicate 1 = 10397; Renilla control light, replicate 1 = 4705; inactive.
VGlut (GeneID 33427) [DRSC00733] showed firefly reporter light, replicate 1 = 4288; firefly reporter light, replicate 2 = 9339; Renilla control light, replicate 1 = 1496; Renilla control light, replicate 2 = 3201; inactive.
With knock-down of VGlut (GeneID 33427) [DRSC21821], the screen gave firefly reporter light, replicate 1 = 6.10e5; firefly reporter light, replicate 2 = 4.79e5; Renilla control light, replicate 1 = 3.33e5; Renilla control light, replicate 2 = 1.60e5; inactive.
With knock-down of CG32486 (GeneID 38367) [DRSC08413], the record shows reporter change call, replicate 1 = Wg reporter activity lowered; firefly reporter light, replicate 1 = 3124; Renilla control light, replicate 1 = 826; inactive.
Against CG32486 (GeneID 38367) [DRSC08488], the values are firefly reporter light, replicate 1 = 5869; Renilla control light, replicate 1 = 3042; inactive.
With knock-down of CG10000 (GeneID 43394) [DRSC14170], the record shows firefly reporter light, replicate 1 = 7637; Renilla control light, replicate 1 = 2438; inactive.
For lbl (GeneID 42541) [DRSC16986] the deposit lists firefly reporter light, replicate 1 = 37092; Renilla control light, replicate 1 = 6336; inactive.
Pka-R2 (GeneID 36041) [DRSC07509] showed firefly reporter light, replicate 1 = 2715; firefly reporter light, replicate 2 = 10577; Renilla control light, replicate 1 = 376; Renilla control light, replicate 2 = 3536; inactive.
Pos (GeneID 43762) [DRSC15415] showed firefly reporter light, replicate 1 = 20524; Renilla control light, replicate 1 = 12246; inactive.
Knock-down of eys (GeneID 3771890) [DRSC00113] resulted in: firefly reporter light, replicate 1 = 9696; Renilla control light, replicate 1 = 5661; inactive.
With knock-down of eys (GeneID 3771890) [DRSC00402], the record shows firefly reporter light, replicate 1 = 3973; firefly reporter light, replicate 2 = 4205; Renilla control light, replicate 1 = 1124; Renilla control light, replicate 2 = 1379; inactive.
For eys (GeneID 3771890) [DRSC00403], the entry reads firefly reporter light, replicate 1 = 2454; firefly reporter light, replicate 2 = 4867; Renilla control light, replicate 1 = 864; Renilla control light, replicate 2 = 2029; inactive.
After knock-down of eys (GeneID 3771890) [DRSC00695], the screen gave firefly reporter light, replicate 1 = 13121; Renilla control light, replicate 1 = 5205; inactive.

Laid out differently: 2 of the entries above
| predicted target | DRSC id | reporter change call, replicate 1 | firefly reporter light, replicate 1 | firefly reporter light, replicate 2 | Renilla control light, replicate 1 | Renilla control light, replicate 2 | Outcome |
| --- | --- | --- | --- | --- | --- | --- | --- |
| Pgant2 (GeneID 33556) | DRSC00587 | – | 3848 | 9997 | 1648 | 4219 | inactive |
| Arp2 (GeneID 32623) | DRSC19332 | – | 17208 | – | 7354 | – | inactive |
